This passage reports binding results from paper PMC12165036.

Amino acid sequences for entries named in this document (tags omitted).
UniProt P49137: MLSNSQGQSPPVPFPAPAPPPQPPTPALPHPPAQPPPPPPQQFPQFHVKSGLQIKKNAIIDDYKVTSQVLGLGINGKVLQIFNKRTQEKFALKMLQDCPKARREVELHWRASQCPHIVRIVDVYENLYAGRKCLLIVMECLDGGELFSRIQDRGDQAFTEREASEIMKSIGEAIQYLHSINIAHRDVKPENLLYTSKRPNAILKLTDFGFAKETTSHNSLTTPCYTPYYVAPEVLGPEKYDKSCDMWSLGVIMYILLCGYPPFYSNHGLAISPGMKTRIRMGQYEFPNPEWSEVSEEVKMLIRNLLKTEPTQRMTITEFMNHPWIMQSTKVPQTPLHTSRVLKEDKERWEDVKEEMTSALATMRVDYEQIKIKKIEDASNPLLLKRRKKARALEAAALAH
UniProt Q92905: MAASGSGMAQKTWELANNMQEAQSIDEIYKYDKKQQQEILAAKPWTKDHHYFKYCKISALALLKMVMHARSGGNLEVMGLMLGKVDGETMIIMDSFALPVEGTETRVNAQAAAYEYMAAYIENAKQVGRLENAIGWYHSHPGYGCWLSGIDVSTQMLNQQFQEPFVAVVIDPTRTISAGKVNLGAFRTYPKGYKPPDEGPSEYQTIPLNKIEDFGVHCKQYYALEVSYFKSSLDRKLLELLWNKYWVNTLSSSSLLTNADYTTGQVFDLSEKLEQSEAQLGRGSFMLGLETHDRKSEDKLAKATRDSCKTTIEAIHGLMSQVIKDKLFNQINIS

No constants are given. Whether binding was seen depends on the method and setting. Binding seen in cells or lysates may run through a third protein. Some results given as binding are weak or reduced against the parent protein; the word gives no strength.

Experiment [1] addresses mitogen-activated protein kinase 2 (MK2), endogenous in HepG2 cells (human (endogenous in HepG2)) (UniProt P49137). The experiment is described as follows: co-IP; endogenous proteins in HepG2 cells; reciprocal, with anti-COPS5 or anti-MK2 antibody.
The target in experiment [2] is His-tagged MK2 (UniProt P49137). The experiment is described as follows: co-IP; HEK293T cells co-transfected with COPS5-Flag and MK2-His plasmids; anti-Flag or anti-His antibody.
In experiment [3] the target is COP9 signalosome subunit 5 (COPS5), endogenous in HepG2 cells (human (endogenous in HepG2)) (UniProt Q92905). Briefly: co-IP; endogenous proteins in HepG2 cells; reciprocal, with anti-COPS5 or anti-MK2 antibody.
For experiment [4], the target named is Flag-tagged COPS5 (UniProt Q92905). Briefly: co-IP; HEK293T cells co-transfected with COPS5-Flag and MK2-His plasmids; anti-Flag or anti-His antibody.

On to “COP9 signalosome subunit 5 (COPS5), endogenous in HepG2 cells (from UniProt Q92905 1-334)”, for which the binding result in experiment [1] was “binds”.
On to “Flag-tagged COPS5 (from UniProt Q92905 1-334)”, for which, in experiment [2], the binding entry was “binds”.
As for “mitogen-activated protein kinase 2 (MK2), endogenous in HepG2 cells (from UniProt P49137 1-400)”, in experiment [3], the binding entry was “binds”.
Regarding “His-tagged MK2 (from UniProt P49137 1-400)”, in experiment [4], the binding result is listed as “binds”.
